PubChem BioAssay AID1159596 – NIAID | 2016
Here is one part, drawn at random, of 756 deposited reagents. 143 of them (19%) were called active. 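Active means the reporter moved past about ±1.5 in either direction; scores are per single siRNA, not per gene; peptidoglycan dose not given.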 Entries without a mark were called inactive. Reagent sequences are not shown. Not stated in the record: the amount of reagent.

Purpose: 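Which toll-like receptor signalling genes are needed for TNF promoter activity driven by peptidoglycan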 (primary screen)
Cell system: human THP1 B5 monocytic reporter cells made macrophage-like with PMA
Reagents: single siRNA against human genes
Timing: assayed 48 to 72 hours after siRNA transfection; peptidoglycan stimulation lasted 4 hours
Treatment: Staphylococcus aureus peptidoglycan for 4 hours; dose not given
Measured: 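Mean over replicate screens of a robust z per siRNA from the dual luciferase TNF promoter reporter after 4 h peptidoglycan, median/MAD normalised, relative to negative controls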
Scale: TNF reporter z-score: higher = stronger TNF promoter reporter response to peptidoglycan
Hit rule: In these data the active calls have TNF reporter z-score, replicate mean at about -1.5 or lower, or at about 1.5 or higher
Calls: active = reporter shifted beyond cut (either direction); inactive = reporter near control level

gene | PubChem SID | TNF reporter z-score, replicate mean
PIK3R3 (phosphoinositide-3-kinase regulatory subunit 3) | SID303070924 | -0.142
PIK3R3 (phosphoinositide-3-kinase regulatory subunit 3) | SID303070925 | -0.442
PIK3R3 (phosphoinositide-3-kinase regulatory subunit 3) | SID303070926 | -0.496
PIK3R3 (phosphoinositide-3-kinase regulatory subunit 3) | SID303070927 | -2.01 (active)
PIK3R3 (phosphoinositide-3-kinase regulatory subunit 3) | SID303070928 | -0.466
PIK3R3 (phosphoinositide-3-kinase regulatory subunit 3) | SID303070929 | -3.14 (active)
AKT1 (AKT serine/threonine kinase 1) | SID303070870 | -0.36
AKT1 (AKT serine/threonine kinase 1) | SID303070871 | 0.988
AKT1 (AKT serine/threonine kinase 1) | SID303070872 | -1.26
AKT1 (AKT serine/threonine kinase 1) | SID303070873 | -0.626
AKT1 (AKT serine/threonine kinase 1) | SID303070874 | 1.18
AKT1 (AKT serine/threonine kinase 1) | SID303070875 | -0.153
RELA (RELA proto-oncogene, NF-kB subunit) | SID303070660 | -1.34
RELA (RELA proto-oncogene, NF-kB subunit) | SID303070661 | -1.11
RELA (RELA proto-oncogene, NF-kB subunit) | SID303070662 | -1.36
RELA (RELA proto-oncogene, NF-kB subunit) | SID303070663 | -0.824
RELA (RELA proto-oncogene, NF-kB subunit) | SID303070664 | -0.82
RELA (RELA proto-oncogene, NF-kB subunit) | SID303070665 | -3.42 (active)
RIPK1 (receptor interacting serine/threonine kinase 1) | SID303070798 | -0.559
RIPK1 (receptor interacting serine/threonine kinase 1) | SID303070799 | 0.00909
RIPK1 (receptor interacting serine/threonine kinase 1) | SID303070800 | 0.446
RIPK1 (receptor interacting serine/threonine kinase 1) | SID303070801 | -1.09
RIPK1 (receptor interacting serine/threonine kinase 1) | SID303070802 | -0.287
RIPK1 (receptor interacting serine/threonine kinase 1) | SID303070803 | -0.389
MAP3K14 (mitogen-activated protein kinase kinase kinase 14) | SID303070864 | 0.484
MAP3K14 (mitogen-activated protein kinase kinase kinase 14) | SID303070865 | 1.68 (active)
MAP3K14 (mitogen-activated protein kinase kinase kinase 14) | SID303070866 | -1.21
MAP3K14 (mitogen-activated protein kinase kinase kinase 14) | SID303070867 | 0.669
MAP3K14 (mitogen-activated protein kinase kinase kinase 14) | SID303070868 | 1.29
MAP3K14 (mitogen-activated protein kinase kinase kinase 14) | SID303070869 | -1.16
OTUD5 (OTU deubiquitinase 5) | SID303070834 | 0.831
OTUD5 (OTU deubiquitinase 5) | SID303070835 | -1.75 (active)
OTUD5 (OTU deubiquitinase 5) | SID303070836 | -1.13
OTUD5 (OTU deubiquitinase 5) | SID303070837 | 1.43
OTUD5 (OTU deubiquitinase 5) | SID303070838 | -0.701
OTUD5 (OTU deubiquitinase 5) | SID303070839 | -1.61 (active)
IKBKB (inhibitor of nuclear factor kappa B kinase subunit beta) | SID303070624 | 0.075
IKBKB (inhibitor of nuclear factor kappa B kinase subunit beta) | SID303070625 | 0.13
IKBKB (inhibitor of nuclear factor kappa B kinase subunit beta) | SID303070626 | 0.0633
IKBKB (inhibitor of nuclear factor kappa B kinase subunit beta) | SID303070627 | -0.227
IKBKB (inhibitor of nuclear factor kappa B kinase subunit beta) | SID303070628 | 0.298
IKBKB (inhibitor of nuclear factor kappa B kinase subunit beta) | SID303070629 | 0.58
SP1 (Sp1 transcription factor) | SID303070996 | -3.47 (active)
SP1 (Sp1 transcription factor) | SID303070997 | -2.83 (active)
SP1 (Sp1 transcription factor) | SID303070998 | 0.0415
SP1 (Sp1 transcription factor) | SID303070999 | 1.57 (active)
SP1 (Sp1 transcription factor) | SID303071000 | -0.329
SP1 (Sp1 transcription factor) | SID303071001 | -1.31
CHUK | SID303070618 | -1.1
CHUK | SID303070619 | -0.201
CHUK | SID303070620 | -0.825
CHUK | SID303070621 | -0.37
CHUK | SID303070622 | -0.71
CHUK | SID303070623 | 0.589
IRAK1 (interleukin 1 receptor associated kinase 1) | SID303070540 | -0.887
IRAK1 (interleukin 1 receptor associated kinase 1) | SID303070541 | -3.37 (active)
IRAK1 (interleukin 1 receptor associated kinase 1) | SID303070542 | -3.78 (active)
IRAK1 (interleukin 1 receptor associated kinase 1) | SID303070543 | -1.34
IRAK1 (interleukin 1 receptor associated kinase 1) | SID303070544 | -2.8 (active)
IRAK1 (interleukin 1 receptor associated kinase 1) | SID303070545 | -3.25 (active)
IRF5 (interferon regulatory factor 5) | SID303070942 | -3.76 (active)
IRF5 (interferon regulatory factor 5) | SID303070943 | -0.63
IRF5 (interferon regulatory factor 5) | SID303070944 | -1.54 (active)
IRF5 (interferon regulatory factor 5) | SID303070945 | -0.298
IRF5 (interferon regulatory factor 5) | SID303070946 | -1.42
IRF5 (interferon regulatory factor 5) | SID303070947 | -1.1
IKBKE (inhibitor of nuclear factor kappa B kinase subunit epsilon) | SID303070822 | 1.51 (active)
IKBKE (inhibitor of nuclear factor kappa B kinase subunit epsilon) | SID303070823 | -1.43
IKBKE (inhibitor of nuclear factor kappa B kinase subunit epsilon) | SID303070824 | 0.199
IKBKE (inhibitor of nuclear factor kappa B kinase subunit epsilon) | SID303070825 | 2.53 (active)
IKBKE (inhibitor of nuclear factor kappa B kinase subunit epsilon) | SID303070826 | -0.855
IKBKE (inhibitor of nuclear factor kappa B kinase subunit epsilon) | SID303070827 | -0.804
IFNAR2 (interferon alpha and beta receptor subunit 2) | SID303071056 | -1.18
IFNAR2 (interferon alpha and beta receptor subunit 2) | SID303071057 | -0.863
IFNAR2 (interferon alpha and beta receptor subunit 2) | SID303071058 | -1.73 (active)
IFNAR2 (interferon alpha and beta receptor subunit 2) | SID303071059 | -1
IFNAR2 (interferon alpha and beta receptor subunit 2) | SID303071060 | 1.32
IFNAR2 (interferon alpha and beta receptor subunit 2) | SID303071061 | -0.738
FADD (Fas associated via death domain) | SID303070804 | 0.645
FADD (Fas associated via death domain) | SID303070805 | 0.201
FADD (Fas associated via death domain) | SID303070806 | 1.11
FADD (Fas associated via death domain) | SID303070807 | -1.19
FADD (Fas associated via death domain) | SID303070808 | -0.0629
FADD (Fas associated via death domain) | SID303070809 | -0.726
DUSP1 (dual specificity phosphatase 1) | SID303071182 | 0.526
DUSP1 (dual specificity phosphatase 1) | SID303071183 | 1.23
DUSP1 (dual specificity phosphatase 1) | SID303071184 | 0.555
DUSP1 (dual specificity phosphatase 1) | SID303071185 | 0.864
DUSP1 (dual specificity phosphatase 1) | SID303071186 | 0.333
DUSP1 (dual specificity phosphatase 1) | SID303071187 | 0.466
IRAK4 (interleukin 1 receptor associated kinase 4) | SID303070552 | -0.599
IRAK4 (interleukin 1 receptor associated kinase 4) | SID303070553 | -0.424
IRAK4 (interleukin 1 receptor associated kinase 4) | SID303070554 | 0.0348
IRAK4 (interleukin 1 receptor associated kinase 4) | SID303070555 | -1.56 (active)
IRAK4 (interleukin 1 receptor associated kinase 4) | SID303070556 | -0.266
IRAK4 (interleukin 1 receptor associated kinase 4) | SID303070557 | 0.0611
CASP8 (caspase 8) | SID303070810 | -0.107
CASP8 (caspase 8) | SID303070811 | -0.164
CASP8 (caspase 8) | SID303070812 | 0.483
CASP8 (caspase 8) | SID303070813 | -0.343
CASP8 (caspase 8) | SID303070814 | 0.54
CASP8 (caspase 8) | SID303070815 | -0.593
IFNB1 (interferon beta 1) | SID303071062 | -1.61 (active)
IFNB1 (interferon beta 1) | SID303071063 | -0.152
IFNB1 (interferon beta 1) | SID303071064 | -0.212
IFNB1 (interferon beta 1) | SID303071065 | -0.747
IFNB1 (interferon beta 1) | SID303071066 | -0.587
IFNB1 (interferon beta 1) | SID303071067 | -1.9 (active)
BTK (Bruton tyrosine kinase) | SID303070858 | -0.177
BTK (Bruton tyrosine kinase) | SID303070859 | -1.13
BTK (Bruton tyrosine kinase) | SID303070860 | -1.27
BTK (Bruton tyrosine kinase) | SID303070861 | -1.07
BTK (Bruton tyrosine kinase) | SID303070862 | 0.96
BTK (Bruton tyrosine kinase) | SID303070863 | -0.436

Laid out differently: results already given.
| gene | PubChem SID | TNF reporter z-score, replicate mean |
| --- | --- | --- |
| IRF5 (interferon regulatory factor 5) | SID303070945 | -0.298 |
| IRF5 (interferon regulatory factor 5) | SID303070946 | -1.42 |
| IRF5 (interferon regulatory factor 5) | SID303070947 | -1.1 |
| IKBKE (inhibitor of nuclear factor kappa B kinase subunit epsilon) | SID303070822 | 1.51 (active) |
| IKBKE (inhibitor of nuclear factor kappa B kinase subunit epsilon) | SID303070823 | -1.43 |
| IKBKE (inhibitor of nuclear factor kappa B kinase subunit epsilon) | SID303070824 | 0.199 |
| IKBKE (inhibitor of nuclear factor kappa B kinase subunit epsilon) | SID303070825 | 2.53 (active) |
| IKBKE (inhibitor of nuclear factor kappa B kinase subunit epsilon) | SID303070826 | -0.855 |
| IKBKE (inhibitor of nuclear factor kappa B kinase subunit epsilon) | SID303070827 | -0.804 |
| IFNAR2 (interferon alpha and beta receptor subunit 2) | SID303071056 | -1.18 |
| IFNAR2 (interferon alpha and beta receptor subunit 2) | SID303071057 | -0.863 |
| IFNAR2 (interferon alpha and beta receptor subunit 2) | SID303071058 | -1.73 (active) |
| IFNAR2 (interferon alpha and beta receptor subunit 2) | SID303071059 | -1 |
| IFNAR2 (interferon alpha and beta receptor subunit 2) | SID303071060 | 1.32 |
| IFNAR2 (interferon alpha and beta receptor subunit 2) | SID303071061 | -0.738 |
| FADD (Fas associated via death domain) | SID303070804 | 0.645 |
| FADD (Fas associated via death domain) | SID303070805 | 0.201 |
| FADD (Fas associated via death domain) | SID303070806 | 1.11 |
